{
  "source": "PubChem BioAssay AID2685",
  "about": "(National Center for Advancing Translational Sciences (NCATS), 2010)",
  "note": "In all, about 320,000 compounds went through this assay and about 2,100 (0.66%) were called active. Inconclusive means that the source gave no clear call. Such entries were picked first, then a sample of the others. Calls come from the whole dose curve; as a rule, active = well fitted inhibition curve with a large enough effect in the signal ratio, with a control signal flat (not every such curve was filed as active); inconclusive = small, poorly fitted or top-dose-only effect, or effect the other way, or a change in a side signal; inactive = flat fitted curve, though single readings scatter; the % refers to the signal ratio. Where the call is inconclusive, the potency comes from a doubtful curve fit. % is set by controls: 0 for no effect and ±100 for the full control effect; potency is the fitted concentration of half-maximal effect.",
  "data": [
    {"assay": "qHTS Assay for Lipid Storage Modulators in Drosophila S3 Cells", "settings": "BODIPY lipid droplet fluorescence, 18-24 h, cells fed with added oleic acid; lipid storage change, negative = inhibition: at 46.1 µM (top of the series) unless noted", "summary_of_the_method": "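Laser-scanning cytometry quantifies lipid droplet accumulation (500–530 nm total intensity; droplet/cell object ratio) in oleic acid-fed (400 uM added) Drosophila S3 cells treated with a concentration series. 20 uM Triacsin C defined 100% inhibition.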", "values": [
      {"smiles": "FC(F)(F)c1cccc(Cn2nnnc2-c2ccc(Cl)cc2)c1", "lipid storage change, negative = inhibition": "inconclusive: -0.697%"},
      {"smiles": "Cc1cccc(NC(=S)NNC(=O)c2ccc(O)cc2O)c1C", "lipid storage change, negative = inhibition": "inconclusive: -34.8% [at 0.369 µM]"},
      {"smiles": "CCCC(=O)Nc1cc(C)c(NC(=O)C23CC4CC(CC(C4)C2)C3)cn1", "lipid storage change, negative = inhibition": "inconclusive: -45.7%"},
      {"smiles": "Cc1nn(-c2ccccc2)c(Cl)c1/C=C1\\SC(=S)N(CCCCCC(=O)O)C1=O", "lipid storage change, negative = inhibition": "inconclusive: -23.8%"},
      {"smiles": "CC1(C)CC(=O)CC(C)(C)N1OC(=O)c1ccccn1", "Potency": "active: 32.6 µM"},
      {"smiles": "CC(C)(C)C1=CC(=O)C(N2CCOCC2)=CC1=O", "Potency": "inconclusive: 25.9 µM [falling, single point]"},
      {"smiles": "CCC1Oc2ccccc2N(CC(=O)NCCC2=CCCCC2)C1=O", "note": "(centres undefined)", "Potency": "inconclusive: 5.8 µM [activator, partial curve, poor fit]"},
      {"smiles": "Cc1ncc([N+](=O)[O-])n1CCOC(=O)Nc1ccc(Cl)c(Cl)c1", "Potency": "inconclusive: 18.4 µM [falling, partial curve, poor fit]"},
      {"smiles": "COc1ccc(NCC(=O)n2c(C)c(C)c3ccccc32)cc1", "lipid storage change, negative = inhibition": "inconclusive: 2.77%"},
      {"smiles": "Cc1nc(SCc2ccc([N+](=O)[O-])cc2)n[nH]1", "lipid storage change, negative = inhibition": "inconclusive: 47.8%"},
      {"smiles": "CN(C)S(=O)(=O)N1CCC(Oc2cccc(C(=O)NC3CCOC3)c2)CC1", "note": "(centres undefined)", "Potency": "inconclusive: 29.1 µM [activator, single point]"},
      {"smiles": "CCOC(=O)c1sc(NC(=O)c2ccncc2)c(C#N)c1C", "lipid storage change, negative = inhibition": "inconclusive: 20.7%"},
      {"smiles": "Cc1c(NC(=O)CN2c3ccccc3CC2C)c(=O)n(-c2ccccc2)n1C", "note": "(centres undefined)", "Potency": "inconclusive: 0.651 µM [falling, single point]"},
      {"smiles": "O=C(COc1ccccc1)Nc1nnc(-c2ccccc2)o1", "lipid storage change, negative = inhibition": "inconclusive: 2.58%"},
      {"smiles": "Cc1nc2scc(C)n2c(=O)c1S(=O)(=O)NC(C)c1ccccc1", "note": "(centres undefined)", "Potency": "inconclusive: 6.51 µM [falling, single point]"},
      {"smiles": "Cc1cccc(N2CCN(C(=O)c3cc4cc(F)ccc4[nH]3)CC2)c1C", "lipid storage change, negative = inhibition": "inconclusive: 18.4%"},
      {"smiles": "NC(=O)CN1C(=O)NC(c2ccccc2)(c2ccccc2)C1=O", "Potency": "inconclusive: 0.164 µM [falling, full curve, poor fit]"},
      {"smiles": "CC1O[C@@H](O[C@H](C)CC[C@@H](C)O[C@H]2OC(C)[C@@H](O)C[C@H]2O)C(O)C[C@H]1O", "note": "(some centres undefined)", "lipid storage change, negative = inhibition": "inconclusive: 87.6%"},
      {"smiles": "Cc1cc(C(=O)CSc2ncnc3ccccc23)c(C)n1C1CC1", "Potency": "inconclusive: 0.651 µM [falling, full curve, poor fit]"},
      {"smiles": "CC(C)COc1ccccc1C(=O)NC(CO)C(=O)O", "note": "(centres undefined)", "lipid storage change, negative = inhibition": "inactive"},
      {"smiles": "CCOC(=O)Cn1c(C)nc2c(C(=O)OCC)sc(C)c2c1=O", "Potency": "inconclusive: 0.0206 µM [activator, full curve]"},
      {"smiles": "O=C(O)c1ccc(N/N=C2/CCCc3ccccc32)cc1", "lipid storage change, negative = inhibition": "inactive"},
      {"smiles": "Cc1cc2oc(C(=O)Nc3ccc(S(=O)(=O)Nc4onc(C)c4C)cc3)cc(=O)c2cc1Cl", "Potency": "inconclusive: 0.0058 µM [falling, full curve, poor fit]"},
      {"smiles": "COc1cccc(N2CCN(C(=O)c3cc4c(s3)CCCCC4)CC2)c1", "lipid storage change, negative = inhibition": "inconclusive: 42.7%"},
      {"smiles": "O=C1c2ccccc2NC(c2ccc(Br)o2)N1O", "note": "(centres undefined)", "Potency": "inconclusive: 0.461 µM [activator, full curve]"},
      {"smiles": "CCCn1nc(NC(=O)c2ccco2)c2cc3ccccc3nc21", "lipid storage change, negative = inhibition": "inconclusive: -14.7%"},
      {"smiles": "CCN(c1ccccc1)S(=O)(=O)c1ccc(C(C(=O)OC)C(=O)OC)c([N+](=O)[O-])c1", "lipid storage change, negative = inhibition": "inconclusive: 39.4%"},
      {"smiles": "Cn1c(=O)c2c(ncn2CCc2ccccc2)n(C)c1=O", "Potency": "inconclusive: 29.1 µM [rising, partial curve]"},
      {"smiles": "CCN(CC)CCCN=C1N[C@@H](c2ccccc2)C(C(=O)OC)=C(C)N1CC", "lipid storage change, negative = inhibition": "inconclusive: 8.52%"},
      {"smiles": "Cc1[nH]c2ccccc2c1SCCNC(=O)c1ccc(S(=O)(=O)N2CCCC2)cc1", "lipid storage change, negative = inhibition": "inactive"},
      {"smiles": "Cc1cc(NC(=O)COc2coc(CN3CCN(c4ccccc4)CC3)cc2=O)no1", "Potency": "inconclusive: 2.31 µM [activator, partial curve]"},
      {"smiles": "C=CCOc1c(Cl)cc(C2NC(=O)NC(C)=C2C(=O)OC)cc1Cl", "note": "(centres undefined)", "Potency": "inconclusive: 32.6 µM [activator, single point]"},
      {"smiles": "CC(=O)c1cccc(NC(=S)NCc2ccccc2)c1", "Potency": "inconclusive: 29.1 µM [falling, single point]"},
      {"smiles": "Cc1ccc(-c2nc(CS(=O)CC(=O)NCCCN3CC(C)CC(C)C3)c(C)o2)cc1", "note": "(centres undefined)", "Potency": "inconclusive: 0.291 µM [falling, full curve, poor fit]"},
      {"smiles": "Cc1ccc(NC(=S)NNC(=O)CSc2nc3ccccc3c(=O)n2-c2ccc(C)cc2)cc1", "Potency": "inconclusive: 0.58 µM [activator, full curve]"},
      {"smiles": "CC1=NN(C(=O)c2ccccc2Br)C(O)(c2ccc(Cl)cc2)C1", "note": "(centres undefined)", "Potency": "inconclusive: 29.1 µM [falling, single point]"},
      {"smiles": "COc1ccc(-c2nnc(NC(=O)c3cc(C)on3)s2)cc1", "lipid storage change, negative = inhibition": "inconclusive: 23.8%"},
      {"smiles": "CN1CCC(OC(=O)COc2ccc(C(C)(C)C)cc2)CC1", "Potency": "inconclusive: 0.0041 µM [falling, full curve, poor fit]"},
      {"smiles": "CC(C)C1Nc2ccc(C(=O)NC3CCCCC3)cc2NC1=O", "note": "(centres undefined)", "Potency": "inconclusive: 23.1 µM [activator, single point]"},
      {"smiles": "O=C(NCC(c1cccs1)N1CCOCC1)c1cc(-c2ccccn2)nc2ccccc12", "note": "(centres undefined)", "lipid storage change, negative = inhibition": "inconclusive: 8.04%"},
      {"smiles": "COc1ccc(/C=C/C(=O)C(C)(C)C)cc1OC", "Potency": "inconclusive: 23.1 µM [falling, single point]"},
      {"smiles": "Cc1cccc(Oc2coc3cc(OC(=O)c4cncc(Br)c4)ccc3c2=O)c1", "lipid storage change, negative = inhibition": "inconclusive: 0.227%"},
      {"smiles": "COc1ccc(C(CC(=O)O)NS(=O)(=O)c2ccc3c(c2)N(C(C)=O)CC(C)O3)cc1", "note": "(centres undefined)", "lipid storage change, negative = inhibition": "inconclusive: 25.3%"},
      {"smiles": "CCc1nnc2n1N=C(c1ccc(Cl)cc1Cl)CS2", "lipid storage change, negative = inhibition": "inconclusive: -31.7%"},
      {"smiles": "COc1ccc(NC(=O)c2cccc([N+](=O)[O-])c2)cc1", "lipid storage change, negative = inhibition": "inactive"},
      {"smiles": "C/C(=C\\C(=O)C(F)(F)F)Nc1ccc(C(F)(F)F)cc1", "Potency": "inconclusive: 1.16 µM [falling, full curve, poor fit]"},
      {"smiles": "COc1ccc(/C=N/NC(=O)c2ccn[nH]2)cc1CN1CCOCC1", "Potency": "inconclusive: 0.116 µM [falling, full curve, poor fit]"},
      {"smiles": "CC(C)c1ccc(NC(=O)C2CCCN(S(=O)(=O)c3ccc4c(c3)C(C)(C)C(=O)N4C)C2)cc1", "note": "(centres undefined)", "Potency": "inconclusive: 20.6 µM [falling, single point]"},
      {"smiles": "Cc1nc2ccccc2n1Cc1ccccc1Br", "lipid storage change, negative = inhibition": "inconclusive: -29.6%"},
      {"smiles": "Cc1ccc(S(=O)(=O)N2CC(O)CC2C(=O)Nc2ccc3c(c2)CCC3)cc1", "note": "(centres undefined)", "Potency": "inconclusive: 32.6 µM [activator, single point]"},
      {"smiles": "O=C1OC(c2ccc(F)cc2)=N/C1=C\\C=C/c1ccccc1", "lipid storage change, negative = inhibition": "inconclusive: 12.1%"},
      {"smiles": "CN(C)c1ccnc(-n2cccc2/C=N/OCc2ccc(F)cc2Cl)c1C#N", "lipid storage change, negative = inhibition": "inconclusive: 265%"},
      {"smiles": "COc1ccccc1C1Nc2ccccc2NC2=C1C(=O)CC(C)(C)C2", "note": "(centres undefined)", "lipid storage change, negative = inhibition": "inconclusive: 38.3%"},
      {"smiles": "CCOC(=O)c1ccc(Nc2ccc([N+](=O)[O-])cn2)cc1", "lipid storage change, negative = inhibition": "inconclusive: -3.16%"},
      {"smiles": "Cc1ccc(Cl)cc1N1CCN(S(=O)(=O)N2CCCCC2)CC1", "Potency": "inconclusive: 6.51 µM [falling, single point]"},
      {"smiles": "CCOC(=O)CN1CC23C=CC(O2)C(C(=O)NC2CCCC2)C3C1=O", "note": "(centres undefined)", "lipid storage change, negative = inhibition": "inconclusive: -34.1%"},
      {"smiles": "Cc1cc(C)n2c(SCC(=O)NC3CCCC(C)C3C)nnc2n1", "note": "(centres undefined)", "lipid storage change, negative = inhibition": "inconclusive: 8.34%"},
      {"smiles": "COCCN(Cc1cc2cc3c(cc2nc1Cl)OCO3)C(=O)c1cccc(C)c1", "lipid storage change, negative = inhibition": "inconclusive: -79%"},
      {"smiles": "CO/N=C/NC(=O)NOCc1c(Cl)cccc1Cl", "Potency": "inconclusive: 6.51 µM [rising, partial curve]"},
      {"smiles": "O=C(CSCc1ccc([N+](=O)[O-])cc1)NC1CC1", "lipid storage change, negative = inhibition": "inconclusive: -6.48%"},
      {"smiles": "Cc1ccn2c(=O)c(C(=O)NCCN3CCOCC3)c(O)nc2c1", "Potency": "inconclusive: 4.61 µM [falling, single point]"},
      {"smiles": "COc1ccc(NC2CCCN(C(=O)CCCn3cncn3)C2)cc1OC", "note": "(centres undefined)", "lipid storage change, negative = inhibition": "inconclusive: 199%"},
      {"smiles": "COC(=O)c1cnn(-c2ccccc2)c1/C=N/NC(=S)Nc1ccc(Cl)cc1", "Potency": "inconclusive: 0.164 µM [activator, full curve, poor fit]"},
      {"smiles": "O=[N+]([O-])c1ccccc1OCCCN1CCc2ccccc2C1", "lipid storage change, negative = inhibition": "inconclusive: 6.5%"},
      {"smiles": "COc1ccc(-c2noc(CN(C)C(=O)c3ccoc3C)n2)cc1", "lipid storage change, negative = inhibition": "inconclusive: -53.2%"},
      {"smiles": "CCOC(=O)N1CCC(NCCNC(=O)c2cccs2)CC1", "lipid storage change, negative = inhibition": "inconclusive: 2.13%"},
      {"smiles": "CN(C)c1ccc(Sc2nnc(NC(=O)Nc3ccc(Cl)cc3Cl)s2)cc1", "lipid storage change, negative = inhibition": "inconclusive: -20.4%"},
      {"smiles": "Cc1ccc(S(=O)(=O)N2CCN(C(=O)CC(C)n3cncn3)CC2)cc1C", "note": "(centres undefined)", "lipid storage change, negative = inhibition": "inconclusive: -10.3%"},
      {"smiles": "CCOC(=O)c1c(C)sc2c1N(C(=O)CN1CCOCC1)c1cc(Cl)ccc1S2", "lipid storage change, negative = inhibition": "inconclusive: -10.2%"},
      {"smiles": "Cn1c(=NC(=O)C2CC2)sc2cccc(F)c21", "Potency": "inconclusive: 4.11 µM [activator, full curve, poor fit]"},
      {"smiles": "COCCCNC(=O)c1cc(OC)c(OC)c(OC)c1", "Potency": "active: 16.4 µM"},
      {"smiles": "COc1ccc(C(=O)N2CCCC(c3nc(-c4ccc(OC)c(OC)c4)no3)C2)c(OC)c1", "note": "(centres undefined)", "lipid storage change, negative = inhibition": "inconclusive: 32.5%"},
      {"smiles": "CN(Cc1ccccc1)C(=S)NC(=O)c1cccs1", "Potency": "inconclusive: 1.46 µM [falling, single point]"},
      {"smiles": "CCN1C(=O)[C@H]2[C@@H](c3ccc(-c4ccc(OC)cc4)cc3)N[C@@](C)(C(=O)OC)[C@H]2C1=O", "lipid storage change, negative = inhibition": "inconclusive: -55.5%"}
    ]}
  ]
}
